Results from the supplement of paper PMC12067093, “Discovery and optimisation of a covalent ligand for TRIM25 and its application to targeted protein ubiquitination” (Chemical Science, 2025).
This is one part of the list.

Sequences of proteins named here, by UniProt entry; tags and fusion partners are left off. A change or cut given only in a name is not applied to a line headed by its entry.
UniProt Q9H5Q4: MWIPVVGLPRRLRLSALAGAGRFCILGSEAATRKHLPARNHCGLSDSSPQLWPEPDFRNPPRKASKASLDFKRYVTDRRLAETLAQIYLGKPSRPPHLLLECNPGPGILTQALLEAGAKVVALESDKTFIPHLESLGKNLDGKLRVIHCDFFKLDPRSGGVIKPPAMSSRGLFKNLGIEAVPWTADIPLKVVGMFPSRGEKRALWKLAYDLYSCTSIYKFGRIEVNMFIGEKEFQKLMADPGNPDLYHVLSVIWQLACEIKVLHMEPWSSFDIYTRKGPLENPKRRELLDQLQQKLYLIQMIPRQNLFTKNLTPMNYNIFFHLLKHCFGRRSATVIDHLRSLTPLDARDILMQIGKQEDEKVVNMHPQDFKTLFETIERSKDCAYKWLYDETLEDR
UniProt Q6YHU6: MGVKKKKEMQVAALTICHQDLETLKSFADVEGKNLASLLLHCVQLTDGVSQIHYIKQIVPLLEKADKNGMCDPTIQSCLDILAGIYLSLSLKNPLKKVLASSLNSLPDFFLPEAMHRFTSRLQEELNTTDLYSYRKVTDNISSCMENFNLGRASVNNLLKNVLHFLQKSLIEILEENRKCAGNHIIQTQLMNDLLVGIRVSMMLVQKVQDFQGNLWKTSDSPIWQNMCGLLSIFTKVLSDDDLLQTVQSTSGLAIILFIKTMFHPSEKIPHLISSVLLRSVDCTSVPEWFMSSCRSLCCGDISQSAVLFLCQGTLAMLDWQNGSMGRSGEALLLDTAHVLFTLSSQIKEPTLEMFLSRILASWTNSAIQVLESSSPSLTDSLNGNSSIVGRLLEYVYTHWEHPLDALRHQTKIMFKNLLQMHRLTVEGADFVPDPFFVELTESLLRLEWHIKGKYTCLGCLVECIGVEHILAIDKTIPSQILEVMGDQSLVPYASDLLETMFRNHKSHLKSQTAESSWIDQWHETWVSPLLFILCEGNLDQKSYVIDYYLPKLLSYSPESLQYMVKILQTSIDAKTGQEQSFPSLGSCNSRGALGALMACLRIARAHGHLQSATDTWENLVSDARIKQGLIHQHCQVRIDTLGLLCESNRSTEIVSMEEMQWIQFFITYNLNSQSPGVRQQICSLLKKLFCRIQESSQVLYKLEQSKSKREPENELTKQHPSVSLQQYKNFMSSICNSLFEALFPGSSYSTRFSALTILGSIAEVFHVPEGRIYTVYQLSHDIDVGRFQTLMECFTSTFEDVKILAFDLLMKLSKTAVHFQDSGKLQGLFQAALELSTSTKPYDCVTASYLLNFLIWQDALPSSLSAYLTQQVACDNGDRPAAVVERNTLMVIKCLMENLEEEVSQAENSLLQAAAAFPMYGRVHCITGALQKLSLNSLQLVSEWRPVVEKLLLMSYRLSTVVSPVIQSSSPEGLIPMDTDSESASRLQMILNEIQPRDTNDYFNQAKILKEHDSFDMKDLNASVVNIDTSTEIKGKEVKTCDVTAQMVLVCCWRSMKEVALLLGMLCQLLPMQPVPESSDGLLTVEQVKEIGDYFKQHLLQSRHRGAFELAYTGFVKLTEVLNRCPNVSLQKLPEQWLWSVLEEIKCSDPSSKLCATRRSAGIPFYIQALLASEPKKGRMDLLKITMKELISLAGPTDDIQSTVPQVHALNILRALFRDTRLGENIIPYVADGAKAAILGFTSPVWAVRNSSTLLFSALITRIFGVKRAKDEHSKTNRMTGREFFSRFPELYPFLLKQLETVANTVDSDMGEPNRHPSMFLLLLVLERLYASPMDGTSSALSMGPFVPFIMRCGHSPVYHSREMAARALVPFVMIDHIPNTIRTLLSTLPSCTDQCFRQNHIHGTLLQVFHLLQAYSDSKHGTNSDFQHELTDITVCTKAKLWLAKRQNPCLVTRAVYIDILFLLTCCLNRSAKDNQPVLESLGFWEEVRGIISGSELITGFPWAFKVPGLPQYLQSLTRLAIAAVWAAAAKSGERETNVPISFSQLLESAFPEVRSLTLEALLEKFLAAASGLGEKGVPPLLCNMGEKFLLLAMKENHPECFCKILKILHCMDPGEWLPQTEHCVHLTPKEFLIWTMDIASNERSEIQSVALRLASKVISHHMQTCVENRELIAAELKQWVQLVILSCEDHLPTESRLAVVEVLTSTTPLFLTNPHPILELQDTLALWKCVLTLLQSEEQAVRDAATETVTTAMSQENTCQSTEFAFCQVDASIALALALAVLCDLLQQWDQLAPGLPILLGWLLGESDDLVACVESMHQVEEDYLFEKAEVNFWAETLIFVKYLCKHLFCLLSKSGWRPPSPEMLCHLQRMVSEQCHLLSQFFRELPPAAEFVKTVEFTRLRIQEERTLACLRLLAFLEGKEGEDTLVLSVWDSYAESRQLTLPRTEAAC
UniProt Q13488, whole entry, looked up: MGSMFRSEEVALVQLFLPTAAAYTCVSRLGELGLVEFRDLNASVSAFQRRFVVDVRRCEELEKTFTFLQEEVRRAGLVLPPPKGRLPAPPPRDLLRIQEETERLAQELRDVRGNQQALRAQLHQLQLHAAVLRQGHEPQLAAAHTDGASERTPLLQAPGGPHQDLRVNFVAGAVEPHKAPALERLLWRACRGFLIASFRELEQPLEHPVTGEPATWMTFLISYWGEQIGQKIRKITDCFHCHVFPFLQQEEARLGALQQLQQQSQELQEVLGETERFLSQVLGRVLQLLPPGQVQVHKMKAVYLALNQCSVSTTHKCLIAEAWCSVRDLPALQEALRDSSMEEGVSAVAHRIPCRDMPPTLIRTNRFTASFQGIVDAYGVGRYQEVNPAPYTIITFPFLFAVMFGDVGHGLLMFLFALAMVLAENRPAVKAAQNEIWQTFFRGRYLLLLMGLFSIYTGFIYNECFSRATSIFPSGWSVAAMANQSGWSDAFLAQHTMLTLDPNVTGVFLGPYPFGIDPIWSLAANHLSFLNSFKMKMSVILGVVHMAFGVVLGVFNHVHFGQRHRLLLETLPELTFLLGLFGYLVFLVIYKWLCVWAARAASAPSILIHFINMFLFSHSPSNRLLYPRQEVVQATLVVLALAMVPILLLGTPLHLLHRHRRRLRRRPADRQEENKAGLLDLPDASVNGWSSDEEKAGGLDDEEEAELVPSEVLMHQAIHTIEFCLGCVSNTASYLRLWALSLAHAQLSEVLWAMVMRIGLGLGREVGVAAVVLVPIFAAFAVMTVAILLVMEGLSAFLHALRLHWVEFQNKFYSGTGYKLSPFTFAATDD
UniProt Q9NWX6: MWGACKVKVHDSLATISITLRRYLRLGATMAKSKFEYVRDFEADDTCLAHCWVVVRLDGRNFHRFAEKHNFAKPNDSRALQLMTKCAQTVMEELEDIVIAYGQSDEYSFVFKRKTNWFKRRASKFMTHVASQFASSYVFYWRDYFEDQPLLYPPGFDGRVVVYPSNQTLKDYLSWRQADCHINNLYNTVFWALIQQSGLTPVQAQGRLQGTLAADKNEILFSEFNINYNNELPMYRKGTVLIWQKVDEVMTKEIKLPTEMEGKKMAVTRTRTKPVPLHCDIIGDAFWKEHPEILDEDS
UniProt Q9NQ88: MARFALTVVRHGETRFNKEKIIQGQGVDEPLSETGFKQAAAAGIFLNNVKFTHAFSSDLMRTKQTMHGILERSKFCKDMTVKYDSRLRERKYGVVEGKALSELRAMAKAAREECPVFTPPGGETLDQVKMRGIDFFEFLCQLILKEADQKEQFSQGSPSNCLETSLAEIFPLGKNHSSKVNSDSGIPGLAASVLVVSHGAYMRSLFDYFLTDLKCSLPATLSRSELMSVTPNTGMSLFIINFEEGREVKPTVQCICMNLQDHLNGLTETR
UniProt Q9UGU0: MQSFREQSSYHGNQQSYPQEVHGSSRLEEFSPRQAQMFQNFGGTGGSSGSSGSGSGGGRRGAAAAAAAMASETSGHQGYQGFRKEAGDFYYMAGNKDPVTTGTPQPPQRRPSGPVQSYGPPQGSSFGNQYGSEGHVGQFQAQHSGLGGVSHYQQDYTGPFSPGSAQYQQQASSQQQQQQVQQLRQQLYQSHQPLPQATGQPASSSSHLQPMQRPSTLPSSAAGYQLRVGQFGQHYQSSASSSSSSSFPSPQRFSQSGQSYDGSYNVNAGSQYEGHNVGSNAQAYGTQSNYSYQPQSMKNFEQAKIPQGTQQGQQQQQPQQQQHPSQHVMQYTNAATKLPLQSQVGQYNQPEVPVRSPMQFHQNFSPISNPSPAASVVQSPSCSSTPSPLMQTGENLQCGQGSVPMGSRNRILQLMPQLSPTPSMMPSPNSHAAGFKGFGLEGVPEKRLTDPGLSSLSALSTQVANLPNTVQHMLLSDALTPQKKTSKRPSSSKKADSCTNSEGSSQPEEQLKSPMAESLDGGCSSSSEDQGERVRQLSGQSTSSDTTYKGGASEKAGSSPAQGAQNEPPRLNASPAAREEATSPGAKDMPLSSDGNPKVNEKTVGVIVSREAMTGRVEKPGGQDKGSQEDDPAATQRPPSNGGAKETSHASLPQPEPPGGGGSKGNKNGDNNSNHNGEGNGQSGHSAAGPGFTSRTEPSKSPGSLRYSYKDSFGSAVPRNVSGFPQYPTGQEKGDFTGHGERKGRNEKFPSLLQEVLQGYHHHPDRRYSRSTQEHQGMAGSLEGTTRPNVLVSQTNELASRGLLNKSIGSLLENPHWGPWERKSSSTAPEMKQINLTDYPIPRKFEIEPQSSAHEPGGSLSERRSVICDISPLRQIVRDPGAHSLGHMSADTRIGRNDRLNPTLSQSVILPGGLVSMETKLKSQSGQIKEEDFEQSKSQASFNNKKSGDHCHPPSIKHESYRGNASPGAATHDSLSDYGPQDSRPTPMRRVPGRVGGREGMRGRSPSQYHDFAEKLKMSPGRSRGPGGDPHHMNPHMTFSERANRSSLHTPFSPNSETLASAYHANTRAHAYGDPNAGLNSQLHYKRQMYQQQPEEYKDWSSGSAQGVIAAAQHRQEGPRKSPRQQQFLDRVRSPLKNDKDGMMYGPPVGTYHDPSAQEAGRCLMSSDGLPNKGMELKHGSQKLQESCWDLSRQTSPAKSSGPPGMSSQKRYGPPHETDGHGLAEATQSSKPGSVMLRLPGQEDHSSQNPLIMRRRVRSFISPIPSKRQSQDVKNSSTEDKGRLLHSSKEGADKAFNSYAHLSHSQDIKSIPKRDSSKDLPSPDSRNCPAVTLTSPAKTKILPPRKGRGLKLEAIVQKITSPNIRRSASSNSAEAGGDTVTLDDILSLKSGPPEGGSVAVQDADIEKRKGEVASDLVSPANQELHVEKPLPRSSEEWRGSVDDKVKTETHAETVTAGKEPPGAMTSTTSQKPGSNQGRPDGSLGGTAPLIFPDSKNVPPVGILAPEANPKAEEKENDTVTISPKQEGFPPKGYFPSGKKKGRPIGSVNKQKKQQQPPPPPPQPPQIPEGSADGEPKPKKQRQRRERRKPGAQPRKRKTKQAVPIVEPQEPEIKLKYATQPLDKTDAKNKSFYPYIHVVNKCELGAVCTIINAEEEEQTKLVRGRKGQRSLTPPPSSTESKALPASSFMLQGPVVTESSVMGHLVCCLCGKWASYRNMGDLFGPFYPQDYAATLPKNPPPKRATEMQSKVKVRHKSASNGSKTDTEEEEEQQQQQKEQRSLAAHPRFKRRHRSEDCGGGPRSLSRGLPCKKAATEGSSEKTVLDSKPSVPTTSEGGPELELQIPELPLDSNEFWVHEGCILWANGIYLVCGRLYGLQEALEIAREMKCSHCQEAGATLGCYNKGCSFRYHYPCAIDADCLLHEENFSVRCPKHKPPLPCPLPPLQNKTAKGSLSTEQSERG
UniProt Q96FV9: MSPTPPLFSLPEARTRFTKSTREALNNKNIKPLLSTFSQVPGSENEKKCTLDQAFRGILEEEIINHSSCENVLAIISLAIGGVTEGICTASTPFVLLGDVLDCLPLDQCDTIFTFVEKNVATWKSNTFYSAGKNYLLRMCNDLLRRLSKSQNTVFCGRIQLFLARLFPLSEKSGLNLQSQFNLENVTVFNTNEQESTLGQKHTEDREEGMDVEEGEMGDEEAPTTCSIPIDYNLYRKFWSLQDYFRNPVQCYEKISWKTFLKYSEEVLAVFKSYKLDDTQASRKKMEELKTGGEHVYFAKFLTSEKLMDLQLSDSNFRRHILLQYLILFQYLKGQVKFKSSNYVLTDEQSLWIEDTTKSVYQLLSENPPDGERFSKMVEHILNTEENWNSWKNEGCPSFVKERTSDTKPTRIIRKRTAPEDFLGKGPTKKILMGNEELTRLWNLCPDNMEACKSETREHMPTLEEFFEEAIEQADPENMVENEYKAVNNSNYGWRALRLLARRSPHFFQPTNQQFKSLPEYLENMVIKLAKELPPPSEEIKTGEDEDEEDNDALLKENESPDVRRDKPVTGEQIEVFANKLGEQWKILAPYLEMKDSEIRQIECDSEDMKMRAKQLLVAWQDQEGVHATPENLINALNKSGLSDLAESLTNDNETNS
UniProt Q8WUY1: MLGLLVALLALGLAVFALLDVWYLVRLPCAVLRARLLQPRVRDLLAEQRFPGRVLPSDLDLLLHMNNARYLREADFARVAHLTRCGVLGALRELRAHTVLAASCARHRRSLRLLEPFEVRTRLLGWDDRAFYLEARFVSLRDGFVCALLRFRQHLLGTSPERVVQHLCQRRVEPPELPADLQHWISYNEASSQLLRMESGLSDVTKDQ

These targets were tested with CC1Cc2ccccc2N1C(=O)C1CCCN(C1)C(=O)CCl (mixture of isomers) [TRIM25 ligand 11 (diastereomer mixture)] (assay: probe-labelled cysteine peptide fold change vs DMSO (competition) (log2 fold change); higher = less target engagement (more negative = stronger competition)). Conditions: 10 µM; THP-1; incubation time: 4 h.
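Further: competitive chemoproteomic profiling in live THP-1 cells with an iodoacetamide desthiobiotin (IA-DTB) probe, comparing probe-labelled peptide intensities in compound-treated cells against DMSO-treated controls.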

| Target | probe-labelled cysteine peptide fold change |
| --- | --- |
| THAP12_O43422_230_FETTAVNTLFCSK (UniProt O43422) | 0.0202 |
| TFB2M_Q9H5Q4_149_VIHCDFFK (UniProt Q9H5Q4) | -0.019 |
| THOP1_P52888_253_EENCAILK (UniProt P52888) | 0.258 |
| THOP1_P52888_18_MKPPAACAGDMADAASPCSVVNDLR (UniProt P52888) | -0.154 |
| TFB2M_Q9H5Q4_102_PSRPPHLLLECNPGPGILTQALLEAGAK (UniProt Q9H5Q4) | -0.0999 |
| TKT_P29401_133_QAFTDVATGSLGQGLGAACGMAYTGK (UniProt P29401) | 0.00614 |
| TET2_Q6N021_784_VEECFHGENQYSK (UniProt Q6N021) | -0.0239 |
| THADA_Q6YHU6_180_CAGNHIIQTQLMNDLLVGIR (UniProt Q6YHU6) | -0.353 |
| TDRD7_Q8NHU6_568_FCSLSFQATK (UniProt Q8NHU6) | 0.126 |
| THBS1_P07996_657_NPCTDGTHDCNK (UniProt P07996) | 0.474 |
| THOP1_P52888_350_YCVDQNLLK (UniProt P52888) | 0.169 |
| THOC2_Q8NI27_986_CIFSAIDAVYCAR (UniProt Q8NI27) | -0.137 |
| TKFC_Q3LXA3_155_GLCGTVLIHK (UniProt Q3LXA3) | -0.12 |
| TIPRL_O75663_75_CVNNYQGMLK (UniProt O75663) | 0.00317 |
| THAP10_Q9P2Z0_171_QAAASQITCENELVQTQPHADNPSNTVTSVPTHCEEGPVHK (UniProt Q9P2Z0) | -0.116 |
| THBD_P07204_256_EAPGAWDCSVENGGCEHACNAIPGAPR (UniProt P07204) | 0.0844 |
| TCIRG1_Q13488_238+241_KITDCFHCHVFPFLQQEEAR (UniProt Q13488) | 0.117 |
| THOC5_Q13769_282_HLPPPLYVLFVQATAYGQACDK (UniProt Q13769) | 0.189 |
| THG1L_Q9NWX6_47_DFEADDTCLAHCWVVVR (UniProt Q9NWX6) | -0.0507 |

| Target | probe-labelled cysteine peptide fold change |
| --- | --- |
| TDP1_Q9NUW8_48_YTCSEAQK (UniProt Q9NUW8) | -0.0326 |
| TEX264_Q9Y6I9_182_LEIYQEDQIHFMCPLAR (UniProt Q9Y6I9) | 0.0432 |
| TIGAR_Q9NQ88_114_EECPVFTPPGGETLDQVK (UniProt Q9NQ88) | 0.0772 |
| TCF20_Q9UGU0_1163_CLMSSDGLPNK (UniProt Q9UGU0) | -0.0779 |
| TK1_P04183_156_LTAVCMECFR (UniProt P04183) | -0.0458 |
| THOC1_Q96FV9_396_NEGCPSFVK (UniProt Q96FV9) | 0.0412 |
| THOP1_P52888_682_GLQVGGCEPEPQVC (UniProt P52888) | 0.131 |
| TKT_P29401_206_CEAFGWHAIIVDGHSVEELCK (UniProt P29401) | 0.0306 |
| THOC6_Q86W42_35_LHMTIFSQSVSPCGK (UniProt Q86W42) | -0.0538 |
| TLN1_Q9Y490_1045_AQEACGPLEMDSALSVVQNLEK (UniProt Q9Y490) | 0.24 |
| TDP1_Q9NUW8_413_WLCSEFK (UniProt Q9NUW8) | -0.0257 |
| TCF25_Q9BQ70_540_EPATMSWLEENVHEVLQAVDAGDPAVEACENRR (UniProt Q9BQ70) | -0.0482 |
| TEC_P42680_74_NDDGVIPCQNK (UniProt P42680) | 0.0448 |
| THOP1_P52888_321_RAECER (UniProt P52888) | -0.00042 |
| TESC_Q96BS2_213_FLNMETMALCH (UniProt Q96BS2) | 0.107 |
| THBS1_P07996_930_DSDGDGRGDACK (UniProt P07996) | 0.528 |
| THEM6_Q8WUY1_104_AHTVLAASCAR (UniProt Q8WUY1) | 0.0289 |
| THG1L_Q9NWX6_51_DFEADDTCLAHCWVVVR (UniProt Q9NWX6) | 0.17 |
| THOC2_Q8NI27_1031_VFSDIIYTVASCTENEASR (UniProt Q8NI27) | 0.0288 |

Same assay, conditions: 50 µM; THP-1; incubation time: 4 h

| Target | probe-labelled cysteine peptide fold change |
| --- | --- |
| THAP12_O43422_230_FETTAVNTLFCSK (UniProt O43422) | 0.187 |
| TFB2M_Q9H5Q4_149_VIHCDFFK (UniProt Q9H5Q4) | 0.0488 |
| THOP1_P52888_253_EENCAILK (UniProt P52888) | 0.483 |
| THOP1_P52888_18_MKPPAACAGDMADAASPCSVVNDLR (UniProt P52888) | -0.415 |
| TFB2M_Q9H5Q4_102_PSRPPHLLLECNPGPGILTQALLEAGAK (UniProt Q9H5Q4) | 0.0423 |
| TKT_P29401_133_QAFTDVATGSLGQGLGAACGMAYTGK (UniProt P29401) | 0.0307 |
| TET2_Q6N021_784_VEECFHGENQYSK (UniProt Q6N021) | -0.151 |
| THADA_Q6YHU6_180_CAGNHIIQTQLMNDLLVGIR (UniProt Q6YHU6) | 0.0817 |
| TDRD7_Q8NHU6_568_FCSLSFQATK (UniProt Q8NHU6) | 0.333 |
| THBS1_P07996_657_NPCTDGTHDCNK (UniProt P07996) | 0.144 |
| THOP1_P52888_350_YCVDQNLLK (UniProt P52888) | 0.0378 |
| THOC2_Q8NI27_986_CIFSAIDAVYCAR (UniProt Q8NI27) | 0.0824 |
| TKFC_Q3LXA3_155_GLCGTVLIHK (UniProt Q3LXA3) | -0.0329 |
| TIPRL_O75663_75_CVNNYQGMLK (UniProt O75663) | -0.119 |
| THAP10_Q9P2Z0_171_QAAASQITCENELVQTQPHADNPSNTVTSVPTHCEEGPVHK (UniProt Q9P2Z0) | -0.261 |
| THBD_P07204_256_EAPGAWDCSVENGGCEHACNAIPGAPR (UniProt P07204) | -0.111 |
| TCIRG1_Q13488_238+241_KITDCFHCHVFPFLQQEEAR (UniProt Q13488) | -0.122 |
| THOC5_Q13769_282_HLPPPLYVLFVQATAYGQACDK (UniProt Q13769) | 0.349 |
| THG1L_Q9NWX6_47_DFEADDTCLAHCWVVVR (UniProt Q9NWX6) | 0.156 |

| Target | probe-labelled cysteine peptide fold change |
| --- | --- |
| TDP1_Q9NUW8_48_YTCSEAQK (UniProt Q9NUW8) | -0.332 |
| TEX264_Q9Y6I9_182_LEIYQEDQIHFMCPLAR (UniProt Q9Y6I9) | 0.0482 |
| TIGAR_Q9NQ88_114_EECPVFTPPGGETLDQVK (UniProt Q9NQ88) | -0.0331 |
| TCF20_Q9UGU0_1163_CLMSSDGLPNK (UniProt Q9UGU0) | -0.48 |
| TK1_P04183_156_LTAVCMECFR (UniProt P04183) | 0.364 |
| THOC1_Q96FV9_396_NEGCPSFVK (UniProt Q96FV9) | -0.021 |
| THOP1_P52888_682_GLQVGGCEPEPQVC (UniProt P52888) | -0.0643 |
| TKT_P29401_206_CEAFGWHAIIVDGHSVEELCK (UniProt P29401) | 0.108 |
| THOC6_Q86W42_35_LHMTIFSQSVSPCGK (UniProt Q86W42) | -0.528 |
| TLN1_Q9Y490_1045_AQEACGPLEMDSALSVVQNLEK (UniProt Q9Y490) | 0.184 |
| TDP1_Q9NUW8_413_WLCSEFK (UniProt Q9NUW8) | -0.0582 |
| TCF25_Q9BQ70_540_EPATMSWLEENVHEVLQAVDAGDPAVEACENRR (UniProt Q9BQ70) | -0.103 |
| TEC_P42680_74_NDDGVIPCQNK (UniProt P42680) | 0.0111 |
| THOP1_P52888_321_RAECER (UniProt P52888) | 0.0102 |
| TESC_Q96BS2_213_FLNMETMALCH (UniProt Q96BS2) | 0.0887 |
| THBS1_P07996_930_DSDGDGRGDACK (UniProt P07996) | 0.255 |
| THEM6_Q8WUY1_104_AHTVLAASCAR (UniProt Q8WUY1) | 0.0465 |
| THG1L_Q9NWX6_51_DFEADDTCLAHCWVVVR (UniProt Q9NWX6) | 0.0848 |
| THOC2_Q8NI27_1031_VFSDIIYTVASCTENEASR (UniProt Q8NI27) | 0.0155 |
